Each number is a percent effect as filed.
How 0% and 100% were set is not recorded. Most values in the screen are low, and negative values occur.
Compounds were drawn at random from those tested, without regard to their results.
A dash means the value is not listed here; it may have been measured.

Amino acid sequences for entries named in this document (tags omitted). Residues count along the entry.
UniProt P9WFT3, whole entry: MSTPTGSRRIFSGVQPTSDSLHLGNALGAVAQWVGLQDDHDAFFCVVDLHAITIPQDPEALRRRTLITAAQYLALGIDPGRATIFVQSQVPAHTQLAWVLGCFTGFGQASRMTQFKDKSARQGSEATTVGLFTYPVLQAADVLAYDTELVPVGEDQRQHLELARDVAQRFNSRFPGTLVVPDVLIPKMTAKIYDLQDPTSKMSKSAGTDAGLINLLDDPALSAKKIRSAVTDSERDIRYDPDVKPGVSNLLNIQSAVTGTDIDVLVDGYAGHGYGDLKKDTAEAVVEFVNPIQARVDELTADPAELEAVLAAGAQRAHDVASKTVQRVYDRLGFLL
UniProt I6X8D2, whole entry: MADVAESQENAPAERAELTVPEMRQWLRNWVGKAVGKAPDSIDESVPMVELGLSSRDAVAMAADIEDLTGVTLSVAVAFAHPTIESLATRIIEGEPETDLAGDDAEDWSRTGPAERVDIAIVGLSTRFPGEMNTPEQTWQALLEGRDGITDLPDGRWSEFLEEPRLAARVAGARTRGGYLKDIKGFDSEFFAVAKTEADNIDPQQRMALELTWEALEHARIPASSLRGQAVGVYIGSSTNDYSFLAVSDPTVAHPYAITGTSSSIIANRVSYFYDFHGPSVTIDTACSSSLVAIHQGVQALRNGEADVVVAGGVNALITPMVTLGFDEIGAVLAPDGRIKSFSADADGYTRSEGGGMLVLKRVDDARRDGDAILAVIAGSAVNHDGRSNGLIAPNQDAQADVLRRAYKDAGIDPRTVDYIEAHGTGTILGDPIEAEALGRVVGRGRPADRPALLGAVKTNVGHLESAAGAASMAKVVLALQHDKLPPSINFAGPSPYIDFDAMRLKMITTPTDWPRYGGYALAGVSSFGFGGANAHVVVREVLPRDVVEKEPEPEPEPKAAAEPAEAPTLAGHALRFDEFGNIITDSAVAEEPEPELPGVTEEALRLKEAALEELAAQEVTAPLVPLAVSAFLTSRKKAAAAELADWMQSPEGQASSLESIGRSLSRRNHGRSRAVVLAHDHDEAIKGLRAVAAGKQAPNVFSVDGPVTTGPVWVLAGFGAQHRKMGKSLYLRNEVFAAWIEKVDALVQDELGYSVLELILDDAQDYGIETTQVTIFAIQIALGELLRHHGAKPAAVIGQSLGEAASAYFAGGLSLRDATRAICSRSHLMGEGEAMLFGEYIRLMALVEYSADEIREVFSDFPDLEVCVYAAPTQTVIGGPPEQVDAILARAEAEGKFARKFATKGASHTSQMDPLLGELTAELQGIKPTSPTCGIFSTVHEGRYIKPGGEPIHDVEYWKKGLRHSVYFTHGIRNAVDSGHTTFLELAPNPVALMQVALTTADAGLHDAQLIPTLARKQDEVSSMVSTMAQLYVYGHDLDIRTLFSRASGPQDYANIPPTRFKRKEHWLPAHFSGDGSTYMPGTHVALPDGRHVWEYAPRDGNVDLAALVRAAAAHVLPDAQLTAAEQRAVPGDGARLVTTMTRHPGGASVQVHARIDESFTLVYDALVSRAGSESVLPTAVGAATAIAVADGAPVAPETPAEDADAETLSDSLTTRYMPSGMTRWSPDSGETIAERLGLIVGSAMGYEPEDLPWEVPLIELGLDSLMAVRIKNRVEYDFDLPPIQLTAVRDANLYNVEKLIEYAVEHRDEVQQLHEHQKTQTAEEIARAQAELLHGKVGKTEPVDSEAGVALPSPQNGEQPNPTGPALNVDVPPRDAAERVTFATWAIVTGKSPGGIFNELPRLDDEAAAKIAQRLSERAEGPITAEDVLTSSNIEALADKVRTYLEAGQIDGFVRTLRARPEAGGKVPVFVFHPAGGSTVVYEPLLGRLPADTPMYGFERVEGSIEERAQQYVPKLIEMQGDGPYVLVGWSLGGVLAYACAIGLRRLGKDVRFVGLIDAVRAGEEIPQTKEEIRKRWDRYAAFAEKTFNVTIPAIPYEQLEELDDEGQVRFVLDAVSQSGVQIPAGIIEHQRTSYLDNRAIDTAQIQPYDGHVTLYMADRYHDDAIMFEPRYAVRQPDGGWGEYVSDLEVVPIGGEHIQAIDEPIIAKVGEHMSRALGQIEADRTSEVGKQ
UniProt A4I591, 1-473: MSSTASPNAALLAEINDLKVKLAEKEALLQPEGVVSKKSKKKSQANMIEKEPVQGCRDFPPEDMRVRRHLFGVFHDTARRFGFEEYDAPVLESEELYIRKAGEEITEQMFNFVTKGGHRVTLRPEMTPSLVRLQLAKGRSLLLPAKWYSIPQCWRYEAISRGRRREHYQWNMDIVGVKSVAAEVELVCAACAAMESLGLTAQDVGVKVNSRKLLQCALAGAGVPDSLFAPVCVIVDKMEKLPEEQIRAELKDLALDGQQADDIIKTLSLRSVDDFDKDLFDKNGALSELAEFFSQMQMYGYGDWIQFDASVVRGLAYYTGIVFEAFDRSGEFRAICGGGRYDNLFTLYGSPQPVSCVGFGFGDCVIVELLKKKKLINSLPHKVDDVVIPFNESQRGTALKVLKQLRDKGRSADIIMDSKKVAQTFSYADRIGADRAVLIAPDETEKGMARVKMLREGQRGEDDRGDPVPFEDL
UniProt Q4DA54, 1-478: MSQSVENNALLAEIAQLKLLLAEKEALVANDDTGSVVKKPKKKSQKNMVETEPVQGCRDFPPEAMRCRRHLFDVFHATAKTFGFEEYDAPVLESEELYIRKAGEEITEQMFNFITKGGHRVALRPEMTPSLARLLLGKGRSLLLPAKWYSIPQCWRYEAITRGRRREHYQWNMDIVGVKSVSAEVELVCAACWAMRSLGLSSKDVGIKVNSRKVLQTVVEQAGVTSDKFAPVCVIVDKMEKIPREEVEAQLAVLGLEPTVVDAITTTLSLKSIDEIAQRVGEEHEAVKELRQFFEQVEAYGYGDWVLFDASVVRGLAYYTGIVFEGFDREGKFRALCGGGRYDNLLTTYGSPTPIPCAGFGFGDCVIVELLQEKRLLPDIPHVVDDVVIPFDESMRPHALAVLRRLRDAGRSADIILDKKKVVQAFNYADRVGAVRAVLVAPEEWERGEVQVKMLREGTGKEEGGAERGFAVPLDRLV

A: 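Enzyme assay of tryptophanyl-tRNA synthetase; the read-out is not stated. Target: Tryptophan-tRNA ligase, Mycobacterium tuberculosis (UniProt P9WFT3). Concentration: 10 µM. Higher most likely means stronger inhibition; the record gives no direction and few retests gave an IC50. Of about 65,000 compounds tested this way, about 64 (0.098%) reached 50% or more in at least one test.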
B: 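Polyketide synthase Pks13, Mycobacterium tuberculosis (UniProt I6X8D2). Enzyme assay of the thioesterase domain of polyketide synthase 13; the read-out is not stated. Compounds at 30 µM. Higher reads as stronger inhibition (inferred from which compounds were picked for retests). About 67,000 compounds were tested under these conditions; 0.46% (about 300) showed 50% or more at least once.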
C: 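Histidine-tRNA ligase, Leishmania infantum (UniProt A4I591). Enzyme assay of histidyl-tRNA synthetase; the read-out is not stated. Compounds at 30 µM. Higher reads as stronger inhibition (inferred: compounds with an IC50 in retests scored well above the rest). The assay is labelled LdHisRS but filed under L. infantum. About 69,000 compounds were tested under these conditions; 0.6% (about 410) showed 50% or more at least once.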
D: 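Enzyme assay of histidyl-tRNA synthetase; the read-out is not stated. Target: Histidine-tRNA ligase, Trypanosoma cruzi CL Brener (UniProt Q4DA54). Compounds at 30 µM. The record gives no direction; compounds that gave an IC50 in retests scored well above the rest, so higher reads as stronger inhibition. Size under these conditions: about 69,000 compounds, about 31 of them at 50% or above in at least one test.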

SMILES,A,B,C,D
CCOCCN1CCN(CC(=O)N2CCC2)CC1CC (centres undefined),0.3313,-11.19,14.04,3.725
Cc1nn(C)c2c(N3CCN(C(=O)C4CC4)CC3)ncnc12,1.943,5.235,12.07,1.739
CCc1nccn1-c1cccc(C2CCCN2)n1 (centres undefined),-7.091,7.978,22.7,13.18
CN(C(=O)c1ccncc1)c1nnc(C2CCOC2)s1 (centres undefined),-5.548,-5.353,6.993,2.26
Cc1ccccc1N1CCCN(C(=O)c2nn(C)cc2Cl)CC1,9.847,-16.78,13.33,-5.195
COCC(=O)Nc1nn(Cc2ccc(F)cc2)cc1Cl,-3.745,-6.477,15.04,7.522
O=C(NC1CCN(c2cccc(OC(F)(F)F)c2)C1=O)C1CCC1 (centres undefined),-0.6517,4.143,11.61,-8.333
c1cc(CN2CC[C@H]3C[C@H](c4nc(C5CC5)cs4)O[C@@H]3C2)ccn1,-1.526,-15.18,17.81,4.95
COc1ccc(-n2nnc(C(=O)NCC3CCCCC3)n2)cc1,2.052,3.901,10.43,-2.062
COCCN1CCc2c(cnc(-c3ccccc3)c2C(=O)O)C1,-0.1744,-2.013,9.091,9.091
COc1cc(N2CCC(c3nccn3Cc3ccccc3)CC2)ncn1,3.13,-26.31,16.44,8.743
O=C(c1cncnc1)N1C[C@@H]2CC[C@H](Oc3cccc(F)c3)[C@@H]2C1,-,7.411,-2,2.247
Cc1ccc(C(=O)N2CCN(Cc3ccc(C#N)cc3)CC2)n1C,3.516,-22.6,5.172,1.695
CCCC(O)CN1CC(C)(C)CN(C(=O)c2ccc(Cl)cc2)CC1=O (centres undefined),-,-,16.49,1.156
CSc1nc(N)c2c(n1)N=C1COC(O)=C1C2c1cccc(O)c1 (centres undefined),6.62,-5.646,18.52,9.375
COc1ccccc1CC1CCCN(CCC(N)=O)C1 (centres undefined),9.194,-31.56,13.22,-2.521
Cc1cccc2[nH]c(C3CCCN(Cc4ccc(CO)o4)C3)nc12 (centres undefined),0.5623,-34.74,12.5,2.128
CN(Cc1cnn(C)c1)C(=O)NC1CCN(c2ncccn2)CC1,-0.7194,-12.24,0,0
CN1CCN(CC(CC(=O)Nc2ccc(Cl)cc2)C(=O)O)CC1 (centres undefined),-1.694,-18.52,16.48,10.31
Cc1noc(C2CCCN(C(=O)c3ccc(Br)cc3F)C2)n1 (centres undefined),0.86,-16.89,8,-1.132
COc1cc(N2CCC3(CC2)CC(N2CCOCC2)CO3)ncn1 (centres undefined),-2.991,-21.21,15.53,4.854
CCn1cncc1C1CC(=O)Nc2c1c(C)nn2-c1ccc(C)cc1 (centres undefined),-8.4,-,9.333,0.578
Cc1nccn1CCC1CCCCN1Cc1cccc(CCN)c1 (centres undefined),-3.476,-35.8,6.25,11.17
O=S(=O)(NCCn1ccc(-c2ccccn2)n1)C1CC1,-0.552,-6.832,5.085,0.4878
CC(C)c1ccsc1C(=O)N1CCCN(Cc2cscn2)CC1,-3.831,-26.86,34.67,4.906
CN(Cc1ccc([S+](C)[O-])cc1)c1ccc(Cl)cn1 (centres undefined),0.301,17.04,0,1.961
CN(c1ncc(S(N)(=O)=O)s1)C1CCC1,-0.7389,-0.8943,4.651,1.19
O=C(C[C@@H]1COC[C@H]2CN(Cc3ccsc3)C[C@@H]12)N1CCCC1,-4.608,-31.31,19.42,10.68
Cn1nnnc1SC1CCCN(c2ccccc2Cl)C1=O (centres undefined),-4.438,-,7.292,3.867
CN(C)Cc1cc(=O)n2c(n1)CN(Cc1ccco1)CCC2,0.549,-9.942,20,10.34
CC(C)c1nnc2n1CCN(Cc1cc(Cl)c3c(c1)OCO3)C2,-0.4989,-13.53,10,1.739
CCC1=N[C@@]2(CC[C@@H]3CN(Cc4ccccc4F)C[C@@H]32)C(=O)N1CC,-1.126,-14.87,13.46,6.952
CC(C)CCc1cc(C(=O)O)nc2[nH]c(=O)[nH]c(=O)c12,1.489,1.72,5.495,6.931
Cc1cc(C)n(Cc2cc(C(=O)N3CCCC3c3ccccn3)n[nH]2)n1 (centres undefined),6.109,2.851,6.522,4.95
O=C(c1cnccn1)N1CCN2C[C@H](Oc3cccnc3)C[C@H]2C1,-2.429,-12.6,6.195,4
COc1cccc(S(=O)(=O)CCNC2CCc3ncnn3C2)c1 (centres undefined),-0.7382,-7.145,13.68,7.692
Cc1nc(C)c(CCN2CCC(Oc3ccccc3F)CC2)s1,-3.284,-9.034,8.264,3.061
CC(C)NC(=O)CNC(C)COc1ccccc1 (centres undefined),-2.84,-21.27,15.56,8.333
c1cnn(CCCO[C@@H]2CC[C@H]3[C@H]2OCCN3CC2CC2)c1,-5.94,-15.81,2.778,4.762
COCc1cc(O)nc(C2CCCN(Cc3cccc(Cl)c3Cl)C2)n1 (centres undefined),-,5.305,27.54,12.09
CCCc1nc(NCCCOCC)c2c(n1)c(C)nn2CC,-0.3886,0.1236,13.79,3.478
c1ccc(CNc2ncc(CN3CC[C@H]4CC[C@@H](C3)N4)cn2)cc1,1.282,-4.235,23.66,8.642
O=C(NCCO)Nc1c(F)cc(F)cc1-c1ccccc1,1.834,-3.637,8.696,6
CC(=O)OC1CN(c2nc3c(C)cccc3s2)C1,-0.8909,6.103,17.07,8.173
CCC(CO)N(Cc1ccco1)C(=O)c1cccc(C)c1O (centres undefined),0.3018,-19.21,9.677,-15.18
CNc1cc(C2CCCN2C(=O)CCc2cnn(C)c2C)ccn1 (centres undefined),-5.503,-6.373,8.451,5.385
CC(=O)N1CC2(CCCN(Cc3ccc(Cl)cc3)C2)Cc2ccccc21 (centres undefined),-4.062,8.944,20.69,8.876
O=C(NCc1ccoc1)NC1CCN(c2ncccn2)CC1,1.649,-9.475,13.21,-3.333
CCc1nccn1C1CCCN(C(=O)c2ccc3[nH]nnc3c2)C1 (centres undefined),2.197,-39.52,8.264,5.042
Cc1c(C(=O)NCC2CCN(Cc3c[nH]cn3)C2)[nH]c2ccccc12 (centres undefined),17.32,39.81,16.24,4.444
CCN(CC)CCNCC1CCOC(C)(C)C1 (centres undefined),-2.036,-20.94,15.07,5
CC(C)c1noc(CCC(=O)N2CCSCC2)n1,0.1485,-6.521,0,2.404
CCCc1noc(CCCC(=O)N2CCCC2c2cnn(C)c2)n1 (centres undefined),2.636,-12.36,3.39,-1.714
O=C(NC1CCc2cc(Cl)ccc21)C1CCN(C(=O)C2CC2)CC1 (centres undefined),3.011,-16.77,17.7,-1.754
CC(C)N(C(=O)Cn1cc(Cl)cn1)c1ccccc1,-2.761,-14.42,7.254,11.6
c1ccc2nc(N3CCOC(Cn4cncn4)C3)cnc2c1 (centres undefined),-7.45,13.13,8.475,3.429
Cc1cc(C(=O)N2CCCC2c2nnc3n2CCCCC3)no1 (centres undefined),-2.654,4.41,27.88,6.504
CC(C)N1CCN(C(=O)Cc2csc(-c3ccco3)n2)CC1,-3.834,-7.988,4.348,2.817
CC(NC(=O)Cc1ccon1)c1ccc(OCC2CC2)c(F)c1 (centres undefined),0,-2.129,7.547,3.333
CCC[C@H]1CN(CCCO)C[C@@H]1NC(=O)Cn1cc(C)cn1,-2.047,3.273,11.48,6.061
O=C(Nc1ccc(Cl)cn1)C1CCCN(Cc2ccccn2)C1 (centres undefined),-7.376,-32.68,17.95,1.111
Cc1cccc(C(=O)N2CCO[C@H]3[C@H](OCCN(C)C)CC[C@@H]32)n1,-4.083,-11.75,8.333,-8.411
Cc1ccc(C(=O)Nc2ccc(OC3CCN(C)CC3)cc2)c(C)c1,-3.406,-2.715,7.2,0.5025

Data taken from ChEMBL document CHEMBL3988442, “University of Dundee, Small-Polar-MMV Screening Library” (2021).